Values from PubChem BioAssay AID1159578 (Peter MacCallum Cancer Centre, 2015).
Test: 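Knock-downs that alter how fast lymphatic endothelial cells migrate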 (primary screen). Cell system: human lymphatic endothelial cells. Reagent: siRNA pool against human genes, 40 nM. Duration: 48 h after transfection. Measured: 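Cells stained with dye and imaged after a scratch; covered wound area and nuclei counted, duplicates averaged, migration set against mock wells and turned into a robust z-score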. Scale: migration robust z-score: higher = faster migration into the scratch; nuclei per well: higher = more cells in the well. Call rule: 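Pools averaging fewer than 3300 nuclei are never called; remaining pools count as changed when migration robust z lies outside -2 to 2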. Meaning of the calls: active = migration changed; inactive = no migration change, or too few cells.
The whole screen tested about 18,000 reagents; shown is a random part of them. About 1,030 of them (5.7%) count as active. 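Inactive calls also include pools with fewer than 3300 nuclei, whose migration was not assessed.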 The raw values are shown without normalisation. Further read-outs or replicates are left out here. Reagent sequences are not shown.

Silencing of ADGRG3 (GeneID 222487) came out at: migration robust z-score -0.96; nuclei per well, duplicate mean 3664; inactive.
For EFCAB7 (GeneID 84455) the deposit lists migration robust z-score 0.92; nuclei per well, duplicate mean 5510; inactive.
Silencing of GABBR2 (GeneID 9568) resulted in: migration robust z-score -0.46; nuclei per well, duplicate mean 4846; inactive.
After knock-down of HACD2 (GeneID 201562), the record shows migration robust z-score -0.9; nuclei per well, duplicate mean 4805; inactive.
Depletion of FAM43A (GeneID 131583) came out at: migration robust z-score 0.55; nuclei per well, duplicate mean 6318; inactive.
Against GCNT2 (GeneID 2651), the values are migration robust z-score -0.68; nuclei per well, duplicate mean 4926; inactive.
Depletion of CUL9 (GeneID 23113) resulted in: migration robust z-score 0.32; nuclei per well, duplicate mean 4316; inactive.
TFCP2L1 (GeneID 29842) scored migration robust z-score 0.39; nuclei per well, duplicate mean 5150; inactive.
After knock-down of PLIN4 (GeneID 729359), the record shows migration robust z-score 0.02; nuclei per well, duplicate mean 5666; inactive.
Knock-down of AXIN1 (GeneID 8312) gave: migration robust z-score 2.75; nuclei per well, duplicate mean 6197; active.
After knock-down of ODAM (GeneID 54959) the results were migration robust z-score -1.27; nuclei per well, duplicate mean 6701; inactive.
Knock-down of TAF4B (GeneID 6875) came out at: migration robust z-score -0.26; nuclei per well, duplicate mean 5397; inactive.

Already shown: entries from further up.
EFCAB7 (GeneID 84455): migration robust z-score = 0.92; nuclei per well, duplicate mean = 5510; activity call = inactive
GABBR2 (GeneID 9568): migration robust z-score = -0.46; nuclei per well, duplicate mean = 4846; activity call = inactive
